Results published in publication PMC6294567, “The C-terminal D/E-rich domain of MBD3 is a putative Z-DNA mimic that competes for Zα DNA-binding activity” (Nucleic Acids Research, 2018).
For at least one entry, the source does not settle the construct or the ends of the probe. At least one verdict rests on a figure or table, not on a statement of the authors. Tags and fusion partners may be left off the protein sequences shown.

Target: T1, MBD3 MBD domain (MBD3MBD) (Homo sapiens) (UniProt O95983)
T1 sequence (looked up): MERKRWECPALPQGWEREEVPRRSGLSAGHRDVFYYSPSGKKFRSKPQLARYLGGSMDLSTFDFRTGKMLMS
Test: circular dichroism
Settings: DNA kept in B-form; recombinant protein; residues 1-72; protein details: His6 removed by TEV

## CGCGCGCGCGCG (double strand) [d(CG)6]
  binding result: binds
